In patent US20150376294A1 (RIGSHOSPITALET, published 2015):
These are yes or no findings as the source states them, for the method shown. Some entries that bind do so weakly or less than the wild type.

The chains behind the UniProt entries cited, without tags or fusion partners. Where a name states a change or a piece, a line headed by the entry shows the natural chain unless it says otherwise.
UniProt Q9Y2J8: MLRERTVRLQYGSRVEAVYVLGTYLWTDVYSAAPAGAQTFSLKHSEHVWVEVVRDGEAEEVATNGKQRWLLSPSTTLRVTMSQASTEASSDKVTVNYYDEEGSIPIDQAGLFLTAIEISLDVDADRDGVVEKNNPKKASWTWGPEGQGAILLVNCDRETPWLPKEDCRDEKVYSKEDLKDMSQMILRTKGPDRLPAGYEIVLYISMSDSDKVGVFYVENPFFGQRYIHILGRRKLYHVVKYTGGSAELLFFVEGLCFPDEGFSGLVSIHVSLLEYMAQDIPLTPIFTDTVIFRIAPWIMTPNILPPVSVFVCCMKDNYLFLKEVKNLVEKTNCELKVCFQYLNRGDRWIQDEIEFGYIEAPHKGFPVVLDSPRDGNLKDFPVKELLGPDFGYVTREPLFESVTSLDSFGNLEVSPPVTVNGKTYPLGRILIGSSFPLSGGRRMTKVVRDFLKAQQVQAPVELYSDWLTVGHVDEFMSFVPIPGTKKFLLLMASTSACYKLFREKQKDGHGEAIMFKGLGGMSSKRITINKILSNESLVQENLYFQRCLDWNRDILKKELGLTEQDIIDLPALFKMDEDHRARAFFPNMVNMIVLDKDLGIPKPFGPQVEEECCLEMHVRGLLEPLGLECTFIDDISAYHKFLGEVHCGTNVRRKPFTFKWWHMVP

Target: 1385-463 (whole length human PAD2 without the catalytic site) (human) (UniProt Q9Y2J8)
Assay: western blotting

- binding: binds
B1: mAb #2 (antibody, V domains shown)
VH: QVQLQQPGAELVRPGASVKLSCKASGYTFTSYWMNWVKQRPGQGLEWIGMIDPSDSESYYNQMFKDKATLTVDKSSSTAYMQLSRLTSEDSAVYYCARKDYYAYGGAMDYWGQGTSVTVSS
VL: QIVLTQSPAILSASLGEEITLTCSANSSARYMHWYQQKSGTSPKLLIYSTSNLASGVPSRFSGSGSGTFYSLTLSSVEAEDAADYYCHQWSGYPTFGGGTKLEIKR
notes: Mouse IgG monoclonal antibody, unknown subtype; raised against rabbit PAD2
